Patent publication US8084644B2, “Iminopropene compound and use thereof” (Sumitomo Chemical Company, Limited, priority 2005, dated 2011)
Some of these results come from one statement about several compounds together. Some compounds share one range, which may span the group rather than tell each member.

Columns and labels:
Assay type in all cases: in vivo
Culex pipiens pallens = experiment: Test Example 7: water treatment test on common mosquito larvae; conditions: concentration of active ingredient 3.5 ppm in water; last-instar larvae; after one day
Spodoptela litura = experiment: Test Example 1: artificial diet test on tobacco cutworm larvae; conditions: 500 ppm, fourth-instar larvae, after 6 days
Adoxophyes orana = experiment: Test Example 2: artificial diet test on summer fruit tortrix larvae; conditions: 500 ppm, first-instar larvae, after 7 days
Plutella xylostella = experiment: Test Example 9: cabbage test on diamondback, second-instar; conditions: 500 ppm, 25° C., after five days

| Molecule | index number (mortality) (Culex pipiens pallens) | index number (mortality) (Spodoptela litura) | index number (mortality) (Adoxophyes orana) | index number (mortality) (Plutella xylostella) |
| --- | --- | --- | --- | --- |
| 1-Phenethyl 3-benzylthio-N-(4-methylphenyl)-thioacrylimidate [(419)] | 4 (mortality 91 to 100%) | – | – | – |
| Clc1cc(Cl)cc(SC=CC(=Nc2ccccc2)Oc2ccccc2)c1 [(112), Phenyl 3-(3,5-dichlorophenylthio)-N-phenylacrylimidate] | – | 3 (mortality 80 to 99%) | 3 (mortality 80 to 99%) | 3 (mortality 80 to 99%) |
| Clc1ncc(CSC=CC(=Nc2ccccc2)Oc2ccccc2)s1 [(128), Phenyl 3-(2-chloro-5-thiazolylmethylthio)-N-phenylacrylimidate] | 4 (mortality 91 to 100%) | – | 3 (mortality 80 to 99%) | – |
| CN(C=CC(=Nc1ccccc1)Oc1ccccc1)Cc1ccccc1 [(133), Phenyl 3-(N′-benzyl-N′-methylamino)-N-phenylacrylimidate] | 4 (mortality 91 to 100%) | – | – | 3 (mortality 80 to 99%) |
| CCOC(C=CSc1ccccc1)=Nc1ccccc1 [(150), Ethyl N-phenyl-3-(phenylthio)acrylimidate] | 4 (mortality 91 to 100%) | – | – | – |
| Clc1ccc(SC=CC(=Nc2ccccc2)SCc2ccccc2)cc1 [(167), Benzyl 3-(4-chlorophenylthio)-N-(phenyl)thioacrylimidate] | – | 3 (mortality 80 to 99%) | 3 (mortality 80 to 99%) | 3 (mortality 80 to 99%) |
| Cc1cccc(SC=CC(=Nc2ccccc2)SCc2ccccc2)c1 [(168), Benzyl 3-(3-methylphenylthio)-N-(phenyl)thioacrylimidate] | – | 3 (mortality 80 to 99%) | 3 (mortality 80 to 99%) | 3 (mortality 80 to 99%) |
| FC(F)(F)c1cccc(SC=CC(=Nc2ccccc2)SCc2ccccc2)c1 [(169), Benzyl N-phenyl-3-(3-trifluoromethylphenylthio)thioacrylimidate] | – | 3 (mortality 80 to 99%) | 3 (mortality 80 to 99%) | 3 (mortality 80 to 99%) |
| Fc1cccc(SC=CC(=Nc2ccccc2)SCc2ccccc2)c1 [(213), Benzyl 3-(3-fluorophenylthio)-N-phenyl-thioacrylimidate] | 4 (mortality 91 to 100%) | – | – | – |
| Brc1ccc(SC=CC(=Nc2ccccc2)SCc2ccccc2)cc1 [(223), Benzyl 3-(4-bromophenylthio)-N-phenyl-thioacrylimidate] | 4 (mortality 91 to 100%) | – | – | – |
| Cc1ccccc1CSC=CC(=Nc1ccccc1)SCc1ccccc1 [(243), Benzyl 3-(2-methylbenzylthio)-N-phenyl-thioacrylimidate] | 4 (mortality 91 to 100%) | – | – | – |
| C(=CC(=Nc1ccccc1)SCc1ccccc1)Sc1ncccn1 [(256), Benzyl N-phenyl-3-(2-pyrimidylthio)-thioacrylimidate] | 4 (mortality 91 to 100%) | – | – | 3 (mortality 80 to 99%) |
| Cc1cccc(COC=CC(=Nc2ccc(C)c(C)c2)Oc2cccc(C)c2)c1 [(316), 3-Methylphenyl N-(3,4-dimethylphenyl)-3-(3-methylbenzyloxy)acrylimidate] | 4 (mortality 91 to 100%) | 3 (mortality 80 to 99%) | – | – |
| Cc1ccc(COC=CC(=Nc2ccc(C)c(C)c2)Oc2cccc(C)c2)cc1 [(317), 3-Methylphenyl N-(3,4-dimethylphenyl)-3-(4-methylbenzyloxy)acrylimidate] | 4 (mortality 91 to 100%) | 3 (mortality 80 to 99%) | – | – |
| Cc1ccc(N=C(C=CSCc2ccccc2C)SCC(C)C)cc1 [(465), Isobutyl 3-(2-methylbenzylthio)-N-(4-methylphenyl)thioacrylimidate] | 4 (mortality 91 to 100%) | – | – | 3 (mortality 80 to 99%) |
